The nature of the data set: H2S generation in buffer, liver homogenate, and homogenate plus PAG. More on the design: species or system rat. The note with it: 1 mM compound, FIG. 21; for H2S release in buffer: potassium phosphate buffer pH 7.4, 37° C.; for H2S release in the presence of tissue (liver homogenate): 10% (wt/vol) rat liver homogenate, compared with buffer; for H2S generation in liver homogenate with PAG (DL-propargylglycine): PAG 2 mM, inhibitor of cystathionine γ-lyase.

Structures are written as SMILES. Some compounds share one wording; it may come from a single statement.

With `NC(=S)c1ccc(O)cc1` [Compound 4-HTB, 4-hydroxythiobenzamide, reference compound], the “H2S release in buffer” value is “did not release significant H2S”.

Take `Nc1ccc(O)c(C(=O)Oc2ccc(-c3cc(=S)ss3)cc2)c1` [Compound XXXV, 5-Amino-2-hydroxy-benzoic acid 4-(5-thioxo-5H-[1,2]dithiol-3-yl)-phenyl ester]: the “H2S release in the presence of tissue (liver homogenate)” value was “greater when in the presence of tissue”, the “H2S generation in liver homogenate with PAG (DL-propargylglycine)” value (from here on “H2S generation in liver homogenate”) is “lack of effect” and the “H2S release in buffer” value is “release H2S spontaneously (in buffer)”.

`NC(=S)c1ccc(OC(=O)c2cc(N)ccc2O)cc1` [Compound XXVII, 5-Amino-2-hydroxy-benzoic acid 4-thiocarbamoyl-phenyl ester]: the “H2S release in the presence of tissue (liver homogenate)” value is given as “greater when in the presence of tissue”, the “H2S generation in liver homogenate” value is “lack of effect” and the “H2S release in buffer” value is listed as “release H2S spontaneously (in buffer)”.

In the case of `N[C@@H](CS)C(=O)O` [L-cysteine, reference compound], the “H2S generation in liver homogenate” value is reported as “markedly inhibited by PAG” and the “H2S release in buffer” value is reported as “did not release significant H2S”.

Consider `Oc1ccc(-c2cc(=S)ss2)cc1` [ADT-OH, 5-p-hydroxyphenyl-1,2-dithione-3-thione, reference compound], for which the “H2S release in buffer” value is “did not release significant H2S”.

Source of the values: patent US20110098257A1, “DERIVATIVES OF 4- OR 5-AMINOSALICYLIC ACID” (ANTIBE THERAPEUTICS INC., priority 2005, published 2011).
